Measurements as given in the supplement of paper PMC8728848.
The other results are listed elsewhere or left out.

Experiments:
Experiment in all cases: glycan array binding signal (z-score within array); higher = stronger binding
Details in all cases: glycan notation: IUPAC condensed, linker removed; mutation: D21K
[1] = biological target: Fuc(a1-2)[GalNAc(b1-3)]Gal
Summary of the method: (§1)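 Arrays were curated from the Consortium for Functional Glycomics database, 3228 in total, and kept only where the protein sequence was available. Binding is expressed as a within-array Z-score. This score was averaged across arrays of the same protein sequence at different concentrations or buffers and across linkers, and negative values can be read as non-binding.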

Fuc(a1-3)GlcNAc = biological target: Fuc(a1-3)GlcNAc
Summary of the method: as §1

[2] = biological target: Fuc(a1-3)[Gal(b1-4)]Glc6S
Summary of the method: as §1

[3] = biological target: Fuc(a1-3)[Gal(b1-4)]GlcNAc
Summary of the method: as §1

[4] = biological target: Fuc(a1-3)[Gal(b1-4)]GlcNAc(b1-2)Man
Summary of the method: as §1

[5] = biological target: Fuc(a1-3)[Gal(b1-4)]GlcNAc(b1-2)Man(a1-3)[Fuc(a1-3)[Gal(b1-4)]GlcNAc(b1-2)Man(a1-6)]Man(b1-4)GlcNAc(b1-4)GlcNAc
Summary of the method: as §1

[6] = biological target: Fuc(a1-3)[Gal(b1-4)]GlcNAc(b1-2)Man(a1-3)[Fuc(a1-3)[Gal(b1-4)]GlcNAc(b1-2)Man(a1-6)]Man(b1-4)GlcNAc(b1-4)[Fuc(a1-6)]GlcNAc
Summary of the method: as §1

[7] = biological target: Fuc(a1-3)[Gal(b1-4)]GlcNAc(b1-3)Gal(b1-3)[Fuc(a1-4)]GlcNAc
Summary of the method: as §1

[8] = biological target: Fuc(a1-3)[Gal(b1-4)]GlcNAc(b1-3)Gal(b1-4)[Fuc(a1-3)]GlcNAc
Summary of the method: as §1

[9] = biological target: Fuc(a1-3)[Gal(b1-4)]GlcNAc(b1-3)Gal(b1-4)[Fuc(a1-3)]GlcNAc(b1-3)Gal(b1-4)[Fuc(a1-3)]GlcNAc
Summary of the method: as §1

[10] = biological target: Fuc(a1-3)[Gal(b1-4)]GlcNAc(b1-3)GalNAc
Summary of the method: as §1

[11] = biological target: Fuc(a1-3)[Gal(b1-4)]GlcNAc(b1-6)GalNAc
Summary of the method: as §1

[12] = biological target: Fuc(a1-3)[Gal(b1-4)]GlcNAc(b1-6)[Gal(b1-3)GlcNAc(b1-3)]Gal(b1-4)Glc
Summary of the method: as §1

[13] = biological target: Fuc(a1-3)[Gal(b1-4)]GlcNAc6S
Summary of the method: as §1

[14] = biological target: Fuc(a1-3)[Gal3S(b1-4)]Glc
Summary of the method: as §1

[15] = biological target: Fuc(a1-3)[Gal3S(b1-4)]GlcNAc
Summary of the method: as §1

[16] = biological target: Fuc(a1-3)[Gal3S(b1-4)]GlcNAc6S
Summary of the method: as §1

[17] = biological target: Fuc(a1-3)[GalNAc(b1-4)]GlcNAc
Summary of the method: as §1

[18] = biological target: Fuc(a1-3)[GalNAc(b1-4)]GlcNAc6S
Summary of the method: as §1

Fuc(a1-4)GlcNAc = biological target: Fuc(a1-4)GlcNAc
Summary of the method: as §1

Fuc(b1-3)GlcNAc = biological target: Fuc(b1-3)GlcNAc
Summary of the method: as §1

Gal(a1-2)Gal = biological target: Gal(a1-2)Gal
Summary of the method: as §1

Gal(a1-3)Gal = biological target: Gal(a1-3)Gal
Summary of the method: as §1

Gal(a1-3)Gal(b1-3)GlcNAc = biological target: Gal(a1-3)Gal(b1-3)GlcNAc
Summary of the method: as §1

[19] = biological target: Gal(a1-3)Gal(b1-3)GlcNAc(b1-2)Man
Summary of the method: as §1

[20] = biological target: Gal(a1-3)Gal(b1-3)GlcNAc(b1-2)Man(a1-3)[Gal(a1-3)Gal(b1-3)GlcNAc(b1-2)Man(a1-6)]Man(b1-4)GlcNAc(b1-4)GlcNAc
Summary of the method: as §1

B1: C7A (Sus scrofa) (peptide)
chain: KILRGVCKKIMRTFLRRISKKILTGKK
[1]
  glycan array binding signal (z-score): -2.16
Fuc(a1-3)GlcNAc
  glycan array binding signal (z-score): 0.07
[2]
  glycan array binding signal (z-score): 0.358
[3]
  glycan array binding signal (z-score): -0.883
[4]
  glycan array binding signal (z-score): 0.088
[5]
  glycan array binding signal (z-score): -0.57
[6]
  glycan array binding signal (z-score): 0.986
[7]
  glycan array binding signal (z-score): -0.475
[8]
  glycan array binding signal (z-score): -0.58
[9]
  glycan array binding signal (z-score): -0.191
[10]
  glycan array binding signal (z-score): 1.11
[11]
  glycan array binding signal (z-score): -0.499
[12]
  glycan array binding signal (z-score): 1.05
[13]
  glycan array binding signal (z-score): -0.09
[14]
  glycan array binding signal (z-score): 0.754
[15]
  glycan array binding signal (z-score): -0.017
[16]
  glycan array binding signal (z-score): 0.794
[17]
  glycan array binding signal (z-score): 0.298
[18]
  glycan array binding signal (z-score): 0.361
Fuc(a1-4)GlcNAc
  glycan array binding signal (z-score): -0.294
Fuc(b1-3)GlcNAc
  glycan array binding signal (z-score): -0.517
Gal(a1-2)Gal
  glycan array binding signal (z-score): -1.04
Gal(a1-3)Gal
  glycan array binding signal (z-score): 0.724
Gal(a1-3)Gal(b1-3)GlcNAc
  glycan array binding signal (z-score): 0.967
[19]
  glycan array binding signal (z-score): 0.819
[20]
  glycan array binding signal (z-score): -0.239
